In patent publication US20250179088A9 (ZYMEWORKS BC INC., priority 2020, published 2025):
pEC50: −log10 of the molar value. Structures were worked out from names or drawings and are uncertain.

Chains of the proteins cited; added tags and fusions are not shown. Residues count along the entry.
UniProt Q9NYK1, 27-1049 limits assumed: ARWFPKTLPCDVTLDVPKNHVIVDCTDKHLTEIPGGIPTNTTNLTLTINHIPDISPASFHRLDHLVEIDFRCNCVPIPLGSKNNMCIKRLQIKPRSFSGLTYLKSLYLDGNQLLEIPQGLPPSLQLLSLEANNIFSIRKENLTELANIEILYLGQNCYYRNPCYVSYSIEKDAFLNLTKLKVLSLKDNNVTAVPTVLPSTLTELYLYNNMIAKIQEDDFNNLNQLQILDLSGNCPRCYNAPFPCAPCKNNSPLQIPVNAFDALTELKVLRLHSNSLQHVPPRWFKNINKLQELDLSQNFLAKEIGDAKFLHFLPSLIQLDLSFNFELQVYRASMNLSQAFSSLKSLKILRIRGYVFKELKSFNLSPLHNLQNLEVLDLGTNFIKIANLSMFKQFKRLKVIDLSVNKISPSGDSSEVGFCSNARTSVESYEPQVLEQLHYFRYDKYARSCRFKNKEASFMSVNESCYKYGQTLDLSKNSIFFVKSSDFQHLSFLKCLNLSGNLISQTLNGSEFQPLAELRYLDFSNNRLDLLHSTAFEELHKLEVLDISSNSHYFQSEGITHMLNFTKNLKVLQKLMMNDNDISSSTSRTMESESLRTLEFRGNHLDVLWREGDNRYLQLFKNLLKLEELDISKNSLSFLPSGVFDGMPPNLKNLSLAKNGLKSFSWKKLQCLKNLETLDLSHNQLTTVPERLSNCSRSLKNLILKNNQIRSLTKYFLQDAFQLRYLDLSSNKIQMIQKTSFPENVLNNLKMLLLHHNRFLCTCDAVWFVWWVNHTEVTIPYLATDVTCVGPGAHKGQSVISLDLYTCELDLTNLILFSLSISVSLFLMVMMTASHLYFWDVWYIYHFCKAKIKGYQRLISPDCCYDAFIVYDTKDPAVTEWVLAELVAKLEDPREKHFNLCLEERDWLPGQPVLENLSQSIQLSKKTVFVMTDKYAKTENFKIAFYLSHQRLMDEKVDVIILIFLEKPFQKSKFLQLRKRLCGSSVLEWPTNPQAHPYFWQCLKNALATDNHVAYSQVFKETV
UniProt Q9NR97, 27-1041 limits assumed: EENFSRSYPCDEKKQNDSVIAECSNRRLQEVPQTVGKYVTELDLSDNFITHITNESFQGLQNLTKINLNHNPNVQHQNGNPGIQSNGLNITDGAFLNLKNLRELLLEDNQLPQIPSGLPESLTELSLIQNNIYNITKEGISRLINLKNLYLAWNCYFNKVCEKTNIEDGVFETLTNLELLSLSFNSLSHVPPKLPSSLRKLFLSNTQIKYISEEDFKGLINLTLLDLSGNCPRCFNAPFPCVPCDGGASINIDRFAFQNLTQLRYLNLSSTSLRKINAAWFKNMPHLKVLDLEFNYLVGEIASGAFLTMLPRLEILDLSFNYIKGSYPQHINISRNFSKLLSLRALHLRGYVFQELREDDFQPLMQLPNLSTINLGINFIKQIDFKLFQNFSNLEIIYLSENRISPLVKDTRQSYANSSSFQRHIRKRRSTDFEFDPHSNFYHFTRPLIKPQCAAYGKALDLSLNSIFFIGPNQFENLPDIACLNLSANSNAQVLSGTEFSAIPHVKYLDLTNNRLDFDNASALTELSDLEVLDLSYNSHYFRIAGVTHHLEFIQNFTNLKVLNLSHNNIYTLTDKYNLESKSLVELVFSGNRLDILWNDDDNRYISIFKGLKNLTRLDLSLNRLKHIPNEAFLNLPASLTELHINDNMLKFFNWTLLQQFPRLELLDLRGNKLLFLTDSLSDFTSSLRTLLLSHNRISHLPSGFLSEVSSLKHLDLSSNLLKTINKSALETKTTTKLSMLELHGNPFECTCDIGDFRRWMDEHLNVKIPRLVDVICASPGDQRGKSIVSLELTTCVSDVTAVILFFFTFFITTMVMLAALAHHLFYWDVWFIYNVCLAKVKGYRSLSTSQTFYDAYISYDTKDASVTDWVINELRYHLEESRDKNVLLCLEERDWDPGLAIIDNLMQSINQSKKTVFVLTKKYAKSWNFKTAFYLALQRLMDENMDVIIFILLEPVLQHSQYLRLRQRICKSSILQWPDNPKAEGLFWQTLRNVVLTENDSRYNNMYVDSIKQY

What was measured:
[1] = test system: PBMCs; assay: PBMC assay, IL-6 release (HTRF); format: cell-based; conditions: read-out: EC50 IL-6; PBMCs from healthy donors, overnight, IL-6 induction by HTRF; average of quadruplicate
[2] = target: TLR7 (Homo sapiens, UniProt Q9NYK1); assay: Reporter gene assay, HEK-Blue TLR7 reporter cells (SEAP); conditions: read-out: EC50 TLR7, overnight, NF-κB activation measured by SEAP, average of quadruplicate
[3] = target: TLR8 (Homo sapiens, UniProt Q9NR97); assay: Reporter gene assay, HEK-Blue TLR8 reporter cells (SEAP); conditions: read-out: EC50 TLR8, overnight, NF-κB activation measured by SEAP, average of quadruplicate

## CCCCc1nc2c(N)nc3ccsc3c2n1Cc1nc(CN2CCC(c3ccncc3)CC2)cs1
[1]
  pEC50: < 6.00
[2]
  pEC50: 6.59
[3]
  pEC50: < 6.00
